According to US11369111B2, “Synergistic composition of nematicide comprising of chalcones” (priority 2017, dated 2022):
Some results were stated once for a whole list of compounds, not compound by compound. Some ranges recur; such a range may be that of the whole group of compounds.

What follows are compounds tested on J2 M. incognita (assay: 96-well plate nematode mortality bioassay). Conditions: chalcone alone, around 10^−4-10^−5 M, by Day 5.
Format: in vivo, Meloidogyne incognita
For `O=C(/C=C/c1ccccc1)c1cccs1` [Chalcone 30, (2E)-3-Phenyl-1-(2-thienyl)-2-propen-1-one], the death of nematodes was 80-85%. `O=C(/C=C/c1ccccc1)c1ccc(Cl)cc1Cl` [Chalcone 17, (2E)-1-(2,4-Dichlorophenyl)-3-phenyl-2-propen-1-one] was tested, and the death of nematodes was 80-85%. In the case of `CCOc1ccc(C(=O)/C=C/c2ccccc2)cc1` [Chalcone 25, (2E)-1-(4-Ethoxyphenyl)-3-phenyl-2-propen-1-one], the death of nematodes was 80-85%.
